Structures are written as SMILES. The campaign covered roughly 1,400 compounds. About 140 (10%) were called active.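 The calls were made as follows: active = Half-maximal inhibitory dose from the fit at or below ten times the top valid tested dose; inconclusive = Invalid fit, or flat curve showing 30 to 70% inhibition; inactive = the rest.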 This is a selection; strong and weak results do not stand in their true shares. Measured potencies and affinities stand elsewhere.

Protein sequences, listed by entry. Tags and fused reporters are not part of them. Residues count along the entry.
UniProt Q9H3R0, 1-420 limits assumed: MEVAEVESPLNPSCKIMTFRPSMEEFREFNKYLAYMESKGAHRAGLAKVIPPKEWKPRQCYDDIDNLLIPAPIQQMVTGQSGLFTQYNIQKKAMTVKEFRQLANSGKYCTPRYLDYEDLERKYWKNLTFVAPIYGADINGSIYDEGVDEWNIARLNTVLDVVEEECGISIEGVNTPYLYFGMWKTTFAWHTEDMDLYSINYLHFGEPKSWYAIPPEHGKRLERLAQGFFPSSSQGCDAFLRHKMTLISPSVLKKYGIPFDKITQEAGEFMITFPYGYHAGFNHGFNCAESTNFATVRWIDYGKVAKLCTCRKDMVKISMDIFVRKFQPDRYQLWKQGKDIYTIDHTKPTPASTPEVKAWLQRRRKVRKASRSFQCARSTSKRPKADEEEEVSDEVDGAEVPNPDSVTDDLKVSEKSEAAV

This experiment deals with Lysine-specific demethylase 4C (Homo sapiens) (UniProt Q9H3R0). Kind of experiment: inhibition of JMJD2C H3K9me3 demethylation – biochemical, DELFIA europium, cherry-picked samples, dose response (AID 488835).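 Also: signal is the H3K9me2 demethylation product detected by a dimethyl-specific antibody.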 Particulars: GST-JMJD2C(1-420); at 6 µM (top of the series) unless noted.
For the compound `O=[N+]([O-])c1ccccc1NCc1ccc(Cl)cc1`, the activity change, negative = inhibition was inactive: -4.49%.

Turning to `C/C(=N\Nc1nc(C(=O)O)cs1)c1ccccc1`, the activity change, negative = inhibition is inactive: -0.0561%.

As to `Cc1ccc(N(CC(=O)N2CCn3c2nc2ccccc23)S(=O)(=O)c2c(C)n[nH]c2C)cc1`, the activity change, negative = inhibition was inactive: 1.4%.

With `COc1cc2nc(-c3ccccc3C)oc(=O)c2cc1OC`, the activity change, negative = inhibition is inactive: -4.96%.

`COc1ccc2c(C)nc(Nc3nc(C)cc(C)n3)nc2c1`: the activity change, negative = inhibition was inactive: -4.81%.

Take `CCc1nc(NCc2ccc3c(c2)OCO3)c2oc3ccccc3c2n1`: the activity change, negative = inhibition was inactive: 4.63%.

Regarding `O=S(=O)(Nc1ccccc1)c1ccc(NS(=O)(=O)c2c(F)cccc2F)cc1`, the activity change, negative = inhibition is inactive: -0.423%.

Turning to `COC(=O)c1nn(Cc2ccccc2)c(=O)c2ccccc12`, the activity change, negative = inhibition was inactive: 3.16%.

`O=C1CCCc2c1nc(-c1ccccc1)n2O`: the activity change, negative = inhibition was inactive: -4.82%.

For `COC(=O)c1ccc(/C=C/c2c(-c3ccc(OC)cc3)sc3ccccc23)cc1`, the activity change, negative = inhibition is inactive: 7.35%.

With `CN(C)C(=O)c1cccc(-c2csc(N3CCC(C(N)=O)CC3)n2)c1`, the activity change, negative = inhibition was inactive: 0.839%.

On to `O=C(O)CC(NC(=O)Cc1ccc(Cl)cc1)c1ccco1` (stereo not drawn), for which the activity change, negative = inhibition was inactive: 1.79%.

Turning to `CN1C(=O)/C(=C2\SC(=S)N(C(CCC(=O)O)C(=O)O)C2=O)c2ccccc21` (stereo not drawn), the activity change, negative = inhibition was inactive: 3.54%.

Take `CCOC(=O)N1CCN(S(=O)(=O)c2ccc3c(c2)CCN3C(=O)C2CC2)CC1`: the activity change, negative = inhibition was inactive: -8.56%.

Regarding `C/C=C(\C)c1nnc(NC(=O)C(C)C)s1`, the activity change, negative = inhibition is inactive: 9.8%.

For `CN1CCN(C(=O)CN(c2ccccc2)S(=O)(=O)N(C)C)CC1`, the activity change, negative = inhibition is inactive: -2.46%.

Regarding `CC12CN3CC(C)(CN(C1)C3c1ccc3ccccc3c1O)C2=O` (stereo not drawn), the activity change, negative = inhibition was inactive: 10.4%.

For `CC(C)=CC(=O)O[C@@H]1Cc2c(ccc3ccc(=O)oc23)OC1(C)C`, the activity change, negative = inhibition was inactive: -1.34%.

`C[C@H]1CN([C@@H](C)CO)C(=O)c2cccc(NC(=O)C3CC3)c2O[C@H]1CN(C)Cc1ccncc1`: the activity change, negative = inhibition is inactive: 1.11%.

Consider `COc1ccc2sc(-c3ccc(S(C)(=O)=O)cc3)c(C#CCO)c2c1`, for which the activity change, negative = inhibition was inactive: -5.21%.

For the compound `COc1ccc(OC)c(N(CC(=O)NCc2ccncc2)S(C)(=O)=O)c1`, the activity change, negative = inhibition is inactive: -3.48%.

As to `Cc1cccc(NC(=S)N(CCN2CCOCC2)Cc2cc3cc4c(cc3[nH]c2=O)OCO4)c1`, the activity change, negative = inhibition was inactive: 3.04%.

Take `COc1ccc(/C=C/C(=O)NC(=S)NNC(=O)Cc2cccs2)cc1OC`: the activity change, negative = inhibition was inactive: -1.6%.

In the case of `CCOC(=O)c1[nH]c(C)c(/C(O)=C2\C(=O)C(=O)N(CCCN(CC)CC)C2c2cccnc2)c1C` (stereo not drawn), the activity change, negative = inhibition was inactive: -0.553%.

For `Cn1c2c(c(=O)n(C)c1=O)CN(CCCN1CCOCC1)CN2`, the activity change, negative = inhibition was inactive: 4.17%.

In the case of `CCCc1nnc(SCC(=O)N2CCCC2)n1CC1CCCO1` (stereo not drawn), the activity change, negative = inhibition is inactive: -5.64%.

On to `Nc1ccc(S(=O)(=O)NC2(C(F)(F)F)NC(=O)N(c3ccc(F)cc3)C2=O)cc1` (stereo not drawn), for which the activity change, negative = inhibition is inactive: -0.954%.

As to `C=CCOC(=O)C1=C(C)NC(=O)NC1c1ccc(OC(=O)c2ccco2)c(OC)c1` (stereo not drawn), the activity change, negative = inhibition was inactive: 1.3%.

In the case of `Cc1ccc(N2CC(C(=O)Nc3ccc(N(C)C)cc3)CC2=O)cc1C` (stereo not drawn), the activity change, negative = inhibition was inactive: -0.0625%.

Turning to `C=CCn1cnc2scc(-c3ccc(C)cc3)c2c1=O`, the activity change, negative = inhibition is inactive: 4.03%.

Take `NNC(=O)c1nn(-c2ccc(Cl)cc2)ccc1=O`: the activity change, negative = inhibition was inactive: 0.759%.

In the case of `COC(=O)c1ccc(CSc2nnc(N)s2)o1`, the activity change, negative = inhibition was inactive: 3.51%.

As for `COc1ccccc1N=Cc1c(C)c(C#N)c2[nH]c3ccccc3n2c1=O`, the activity change, negative = inhibition was inactive: -9.22%.

On to `C[C@H]1CN([C@@H](C)CO)C(=O)c2cc(NC(=O)C3CCCCC3)ccc2O[C@H]1CN(C)S(=O)(=O)c1ccccc1`, for which the activity change, negative = inhibition was inactive: 2.4%.

As to `CCCn1nnnc1SCC(=O)NCc1ccc2c(c1)OCO2`, the activity change, negative = inhibition was inactive: 17.8%.

In the case of `COc1ccccc1Nc1ncnc2ccccc12`, the activity change, negative = inhibition is inactive: 7.2%.

As to `Cc1ccsc1C(=O)OCc1nc2ccccc2c(=O)[nH]1`, the activity change, negative = inhibition is inactive: 0.601%.

For `COc1ccc(Nc2cccc(Cl)c2)c(C(=O)O)c1`, the activity change, negative = inhibition is inactive: -1.94%.

Consider `COC(=O)[C@]1(C)N[C@H](CN(C)C(=O)Nc2ccc(F)cc2)[C@@H]2C(=O)N(C)C(=O)[C@@H]21`, for which the activity change, negative = inhibition was inactive: -4.55%.

Turning to `CC(C)NC(=O)Nc1ccc2c(c1)C(=O)N([C@H](C)CO)C[C@H](C)[C@@H](CN(C)C(=O)Nc1ccccc1)O2`, the activity change, negative = inhibition is inactive: 3.67%.

For `C[C@@H](CN1CCC[C@H]1CN1C(N)=NC[C@@H]1Cc1ccccc1)N1C[C@@H](Cc2ccccc2)N(CCc2ccc(Cl)c(Cl)c2)C1=N`, the activity change, negative = inhibition is inactive: -5.78%.

For the compound `Cc1cccc(-n2c(SCC(=O)Nc3ccc4c(c3)OCO4)nnc2-c2ccoc2C)c1`, the activity change, negative = inhibition is inactive: 2.45%.

As to `Cc1ccc(C(=O)NCc2ccco2)cc1Br`, the activity change, negative = inhibition was inactive: -7.8%.

On to `N#Cc1ccc(C23OCCN2CCn2nc4ccccc4c23)cc1` (stereo not drawn), for which the activity change, negative = inhibition is inactive: -1.41%.

In the case of `O=C(O)CCCC(=O)Nc1ccc(C(=O)NCc2cccnc2)cc1`, the activity change, negative = inhibition was inactive: 3.5%.

For the compound `O=C(Cc1ccccc1Cl)N1CCN(c2ccccn2)CC1`, the activity change, negative = inhibition was inactive: 7.57%.

For the compound `Cc1nc2c3cc(F)ccc3n(Cc3ccccc3)c2s1`, the activity change, negative = inhibition is inactive: 0.346%.

In the case of `Cc1nnnn1/C(=C\c1ccccc1)C(=O)OCC(=O)NC(C)(C)C`, the activity change, negative = inhibition was inactive: 4.63%.

For the compound `O=C(Nc1ccccc1)N1CCSCC1`, the activity change, negative = inhibition was inactive: 8.02%.

Take `COc1ccc(OC)c(/C=C/C(=O)Nc2cccc(S(=O)(=O)NC3=NCCCCC3)c2)c1`: the activity change, negative = inhibition is inactive: 13.8%.

Consider `C[C@H](CO)N1C[C@H](C)[C@@H](CN(C)S(=O)(=O)c2ccccc2)Oc2ccc(NS(=O)(=O)c3ccc(F)cc3)cc2C1=O`, for which the activity change, negative = inhibition is inactive: -0.626%.

Take `O=C(Nc1ccccc1)N(O)c1ccc(Cl)cc1`: the activity change, negative = inhibition was inactive: -3.7%.

Consider `CS(=O)(=O)N(CC(=O)N1CCCCCC1)c1ccccc1`, for which the activity change, negative = inhibition is inactive: 5.77%.

As for `CSc1ccccc1C(=O)Nc1ccc(C)c(C)c1`, the activity change, negative = inhibition was inactive: 2.16%.

With `CN1CCN(Cc2c(C#N)c3ccccc3n2C)CC1`, the activity change, negative = inhibition was inactive: 2.97%.

With `COc1ccc(C2C(C#N)=C(N)Oc3c2sc2nc(C)cc(C)c32)cc1` (stereo not drawn), the activity change, negative = inhibition is inactive: 4.79%.

On to `Cc1cc2c(cc1C)NC(CC(=O)NCc1ccccc1)C(=O)N2` (stereo not drawn), for which the activity change, negative = inhibition is inactive: 8.71%.

Consider `CCCCNC(=O)c1nn2cc(Br)cnc2c1Br`, for which the activity change, negative = inhibition was inactive: -2.06%.

These data come from PubChem BioAssay AID488835 (Broad Institute, 2010).
